This test has as its target T1, Gal4DBD-Rif2_(1-36) (Rif2 BAT motif) (S. cerevisiae) (UniProt Q06208).
T1 sequence: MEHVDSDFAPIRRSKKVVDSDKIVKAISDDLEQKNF
Kind of test: two-hybrid; strain Y190, growth on synthetic glucose plates with adenine and 3-AT (25 and 50 mM); Gal4DBD-Rif2 fragments against pACT2-RAD50 and its derivatives, Rap1 366-827 or Mre11; WT cells, also cells lacking Mre11 and Xrs2 or the endogenous Rad50.

Amino acid sequences for entries named in this document (tags omitted). A change or cut given only in a name is not applied to a line headed by its entry.
UniProt P12753: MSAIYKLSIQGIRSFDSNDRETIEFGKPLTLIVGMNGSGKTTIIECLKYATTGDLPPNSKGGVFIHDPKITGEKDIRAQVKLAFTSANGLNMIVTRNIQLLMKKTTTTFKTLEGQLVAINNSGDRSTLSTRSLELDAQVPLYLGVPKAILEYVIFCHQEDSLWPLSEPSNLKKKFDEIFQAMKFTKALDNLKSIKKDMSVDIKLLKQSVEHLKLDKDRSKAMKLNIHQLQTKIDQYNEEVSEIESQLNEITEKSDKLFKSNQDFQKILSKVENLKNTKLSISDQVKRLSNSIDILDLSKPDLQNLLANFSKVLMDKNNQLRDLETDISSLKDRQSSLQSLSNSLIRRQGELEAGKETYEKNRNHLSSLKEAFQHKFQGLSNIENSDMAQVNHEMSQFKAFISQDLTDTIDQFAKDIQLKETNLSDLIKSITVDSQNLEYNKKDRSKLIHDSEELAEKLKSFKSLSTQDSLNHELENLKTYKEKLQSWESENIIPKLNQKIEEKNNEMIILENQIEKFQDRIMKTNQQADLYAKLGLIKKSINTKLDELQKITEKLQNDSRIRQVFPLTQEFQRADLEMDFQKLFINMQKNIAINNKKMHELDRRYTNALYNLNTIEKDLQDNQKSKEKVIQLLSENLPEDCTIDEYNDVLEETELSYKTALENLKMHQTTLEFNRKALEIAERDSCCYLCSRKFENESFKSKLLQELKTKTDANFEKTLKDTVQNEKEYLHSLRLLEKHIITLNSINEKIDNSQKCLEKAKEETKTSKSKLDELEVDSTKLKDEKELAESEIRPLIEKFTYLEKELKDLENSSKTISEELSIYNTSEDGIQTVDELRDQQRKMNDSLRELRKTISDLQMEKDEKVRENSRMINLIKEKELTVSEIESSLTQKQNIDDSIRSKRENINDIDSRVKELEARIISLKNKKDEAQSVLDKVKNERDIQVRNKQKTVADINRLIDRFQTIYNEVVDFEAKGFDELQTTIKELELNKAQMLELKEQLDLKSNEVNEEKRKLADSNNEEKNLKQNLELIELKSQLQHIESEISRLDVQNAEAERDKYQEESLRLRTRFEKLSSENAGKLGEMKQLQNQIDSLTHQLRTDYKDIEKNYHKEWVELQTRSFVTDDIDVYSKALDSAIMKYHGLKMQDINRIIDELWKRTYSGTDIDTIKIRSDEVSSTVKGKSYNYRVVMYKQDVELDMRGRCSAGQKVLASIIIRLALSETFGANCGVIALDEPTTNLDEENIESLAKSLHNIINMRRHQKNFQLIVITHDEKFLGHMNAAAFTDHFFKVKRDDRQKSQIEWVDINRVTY

These are yes or no findings as the source states them, for the method shown. A result given as binding can be weak or reduced; the word gives no strength.

As for “mutant full-length Rad50, mutation at position N97 (from UniProt P12753)”, the binding entry is “binds”.
For the substance “mutant full-length Rad50, mutation at position Q79 (from UniProt P12753)”, the binding entry is listed as “binds”.
For “mutant full-length Rad50, mutation at position Q115 (from UniProt P12753)”, the binding result was “binds”.
As to “mutant full-length Rad50, mutation at position I93 (from UniProt P12753)”, the binding entry is “no binding”.
Under “mutant full-length Rad50, mutation at position K6 (from UniProt P12753)” stands “no binding”.
With “mutant full-length Rad50, mutation at position K81 (from UniProt P12753)” the entry was “no binding”.

(Values after article PMC8115599, “Mechanism of MRX inhibition by Rif2 at telomeres” (Nature Communications, 2021).)
